The name of at least one read-out is uncertain.
Target: T1, CHIP28 water channel (Homo sapiens, UniProt P29972)
T1 construct: Human erythrocytes were obtained from blood-bank units stored up to 5 weeks; from tissue; host or cells: human erythrocytes (blood-bank units; small-scale preparations from freshly drawn whole blood)
T1 sequence (P29972 2-269 limits assumed): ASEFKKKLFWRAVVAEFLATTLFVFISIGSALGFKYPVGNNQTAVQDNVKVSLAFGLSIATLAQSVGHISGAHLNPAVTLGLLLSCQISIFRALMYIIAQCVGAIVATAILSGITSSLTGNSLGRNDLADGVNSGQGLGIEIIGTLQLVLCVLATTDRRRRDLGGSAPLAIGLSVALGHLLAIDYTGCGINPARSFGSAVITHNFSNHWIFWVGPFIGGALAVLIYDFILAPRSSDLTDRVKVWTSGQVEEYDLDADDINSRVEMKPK
Experiment: Proton permeability of CHIP28 proteoliposomes
Type: biochemical
Details: 1 μm gramicidin A added

## gramicidin A
  increase of PH+: over 50 fold

— patent US5741671A, “Isolation cloning and expression of transmembrane water channel aquaporin 1(AQP1)” (The Johns Hopkins University, priority 1995, dated 1998)
